Literature values as cited in patent US8236817B2, “Polymorphs of 1-cyclopropy1-7-([s,s])-2,8-diazadicyclo[4.3.0]non-8-yl)-6-fluoro-1,4-dihydro-8-methoxy-4-oxo-3-quinoline carboxylic acid hydrochloride and methods for the preparation thereof” (Chemi S.p.A., priority 2003, dated 2012).
Counter-ions that a name gives are not always drawn. For at least one compound, name, drawing or mass did not settle the structure.

Settings: solid form exposed to atmosphere; stated in U.S. Pat. No. 5,849,752

Compound: COc1c(N2C[C@@H]3CCCN[C@@H]3C2)c(F)cc2c(=O)c(C(=O)O)cn(C3CC3)c12 [monohydrate form, 1-cyclopropyl-7-(S,S)-2,8-diazabicyclo[4.3.0]non-8-yl)-6-fluoro-1,4-dihydro-8-methoxy-4-oxo-3-quinoline carboxylic acid hydrochloride]
- hygroscopicity: does not have the disadvantage of being hygroscopic
